{"sequences": {"note": "By UniProt entry, the sequences of proteins in these tests, tags left out.", "UniProt Q9H4L4": "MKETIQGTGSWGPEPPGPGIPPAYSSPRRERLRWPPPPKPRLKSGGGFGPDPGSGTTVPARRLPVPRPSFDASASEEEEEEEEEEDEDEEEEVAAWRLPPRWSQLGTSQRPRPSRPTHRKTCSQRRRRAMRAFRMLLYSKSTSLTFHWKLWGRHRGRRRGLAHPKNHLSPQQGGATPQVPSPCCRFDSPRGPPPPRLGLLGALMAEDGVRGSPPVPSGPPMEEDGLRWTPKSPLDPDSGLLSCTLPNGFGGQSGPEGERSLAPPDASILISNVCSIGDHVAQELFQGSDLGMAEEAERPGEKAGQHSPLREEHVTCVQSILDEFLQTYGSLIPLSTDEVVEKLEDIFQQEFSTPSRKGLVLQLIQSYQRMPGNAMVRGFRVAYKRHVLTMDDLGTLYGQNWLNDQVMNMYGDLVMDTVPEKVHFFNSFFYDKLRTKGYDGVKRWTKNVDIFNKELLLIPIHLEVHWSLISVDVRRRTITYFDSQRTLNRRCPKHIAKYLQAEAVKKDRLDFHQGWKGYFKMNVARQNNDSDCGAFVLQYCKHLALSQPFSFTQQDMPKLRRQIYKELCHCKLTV"}, "source": "paper PMC11613746", "biological_target": "T1, Sine oculis homeobox homolog 1 (SIX1), endogenous (human (endogenous in 22Rv1, LNCaP, PC3)) (UniProt Q15475)", "T1 sequence": "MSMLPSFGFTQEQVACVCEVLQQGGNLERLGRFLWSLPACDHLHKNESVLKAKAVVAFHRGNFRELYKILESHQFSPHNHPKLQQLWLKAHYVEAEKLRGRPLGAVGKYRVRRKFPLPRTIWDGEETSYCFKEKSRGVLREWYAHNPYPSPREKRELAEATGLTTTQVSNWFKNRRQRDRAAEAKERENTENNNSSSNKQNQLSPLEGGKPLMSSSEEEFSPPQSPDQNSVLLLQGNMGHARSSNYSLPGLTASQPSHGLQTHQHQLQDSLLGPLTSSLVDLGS", "assay": "affinity purification with mass spectrometry; endogenous SIX1 and control IgG immunoprecipitation from PC3 whole-cell lysate, SDS-PAGE, silver staining, LC-MS/MS", "note": "No constants are given. Whether binding was seen depends on the method and setting. Binding seen in cells or lysates may run through a third protein. A yes stands for co-enrichment or nearness to the bait. Other partners may have been found."}
{"substance": "Sentrin/SUMO-specific protease 3 (SENP3), endogenous (from UniProt Q9H4L4 1-574) (enzyme)", "values": [{"measurement": "binding", "result": "binds"}]}
